Some of these results come from one statement about several compounds together. For at least one compound, name, drawing or mass did not settle the structure.
Legend:
Bifidobacterium = experiment: Stimulation of growth: enumeration of bifidobacterium in vitro in human faecal homogenate / WC broth; assay type: cell-based, Bifidobacterium spp; conditions: 1% b.w., control 1.0 10^6 CFU/ml
Experimental: (§1) The stimulation of growth of micro-organisms has been studied by enumerating bifidobacterium and lactobacilli in vitro in the presence of various test substances. More specifically, aliquots (1 mL) of human faecal homogenates (10 g per 100 mL diluent) were added to diluted WC broth (diluted 50:50 with 0.05M phosphate buffer) to which were added the test mixtures and a lactobacillus or bifidobacterium strain. For each of the combinations, parallel tubes were prepared with one set being inoculated with Bifidobacterium spp or Lactobacillus spp. All mixtures were then incubated for up to 24 hours and bacterial numbers enumerated.

Lactobacterium = experiment: Stimulation of growth: enumeration of lactobacilli in vitro in human faecal homogenate / WC broth; assay type: cell-based, Lactobacillus spp; conditions: 1% b.w., control 2.8 10^5 CFU/ml
Experimental: as §1

Row | SMILES | effect on the stimulation of cell growth (Bifidobacterium) | effect on the stimulation of cell growth (Lactobacterium)
1 | CCCCCCCCCCCCCCCCCC(=O)O[C@H]1CC[C@@]2(C)[C@@H](CC[C@@H]3[C@@H]2CC[C@]2(C)[C@@H]([C@H](C)CC[C@@H](CC)C(C)C)CC[C@@H]32)C1 [C8, β-Sitostanolstearate] | weak effect | weak effect
2 | CCCCCCCCCCCCCCCC(=O)O[C@H]1CC[C@@]2(C)C(=CC[C@H]3[C@@H]4CC[C@H]([C@H](C)CC[C@@H](CC)C(C)C)[C@@]4(C)CC[C@@H]32)C1 [C7, β-Sitosterolpalmitate] | weak effect | weak effect
3 | CC[C@H](CC[C@@H](C)[C@H]1CC[C@H]2[C@@H]3CC[C@H]4C[C@@H](O)CC[C@]4(C)[C@H]3CC[C@]12C)C(C)C [C6, β-Sitostanol] | weak effect | weak effect
